Source: article PMC8730729
No constants are given. Whether binding was seen depends on the method and setting. Binding seen in cells or lysates may run through a third protein.

Assays:
Assay in all cases: co-IP; GFP nanobody affinity resin IP of EGFP-Rab baits from transiently transfected 293T cells in the presence of GTPγS (2 mM in the lysis buffer); immunoblots with anti-FHIP1B or anti-FHIP2A; 3xHA-sfGFP as control
EGFP-Rab11 (human) = biological target: EGFP-Rab11 (human)
EGFP-Rab2 (human) = biological target: EGFP-Rab2 (human)
EGFP-Rab7 (human) = biological target: EGFP-Rab7 (human)
EGFP-Rab8 (human) = biological target: EGFP-Rab8 (human)
EGFP-Rab9 (human) = biological target: EGFP-Rab9 (human)

Measured: binding

B1: FHIP1B, endogenous in 293T cells (protein, UniProt Q8N612 1-972)
chain: MERMNWLSRLASRGPGHRIPQGANLQTPVMADPETCLMVFKNHWSQVVRILERQGPRAAPGGADDLSAVRNHTYQMLTLLAEDRAVPSAPTGPGPLLEFALHEDLLTRVLTWQLQWDELGDGVEERRAEQLKLFEMLVSEARQPLLRHGPVREALLTLLDACGRPVPSSPALDEGLVLLLSQLCVCVAQEPSLLEFFLQPPPEPGAAPRLLLFSRLVPFVHREGTLGQQARDALLLLMALSAGSPTVGRYIADHSYFCPVLATGLSALYSSLPRKIEVPGDDWHCLRREDWLGVPALALFMSSLEFCNAVIQVAHPLVQKQLVDYIHNGFLVPVMGPALHKTSVEEMIASTAYLELFLRSISEPALLRTFLRFLLLHRHDTHTILDTLVARIGSNSRLCMVSLSLFRTLLNLSCEDVLLQLVLRYLVPCNHVMLSQKPAVRDVDLYGRAADKFLSLIPRCCRHHAPSPPRPEHASWARGPGSPSVDSSSVTTVPRPSTPSRLALFLRQQSLGGSESPGPAPCSPGLSASPASSPGRRPTPAEEPGELEDNYLEYLREARRGVDRCVRACRTWSAPYDGERPSPEPSPFGSRTKKRSLLPEEDRNNVGEGEEEELGRRGRAGGAGEGPGHLPPPQLNGVPGSWPEGAKKVRLVPKEGAGELLEGISEGMAGLEGFGQELRELEVALSNGGTGSESPLEPPLPLEEEEAYESFTCPPEPPGPFLSSPLRTLNQLPSQPFTGPFMAVLFAKLENMLQNSVYVNFLLTGLVAQLACHPQPLLRSFLLNTNMVFQPSVKSLLQVLGSVKNKIENFAASQEDFPALLSKAKKYLIARGKLDWAEGPAAGPAPRRSDPLVKSRRPSLGELLLRHAHSPTRARQAAQLVLQPGRDGAGLGLSGGSPGASTPVLLTRGGAPERQGEALRVKNAVYCAVIFPEFLKELAAISQAHAVTSPFLLETSEEGSGPLISGCGPLNP
no binding: EGFP-Rab11 (human) | EGFP-Rab2 (human) | EGFP-Rab7 (human) | EGFP-Rab8 (human) | EGFP-Rab9 (human)
